The values below come from article doi:10.1101/2020.02.26.966374.

Like-named read-outs stand apart in the source and are kept apart here. Results are given in words; binding and its absence hold for the method and conditions named. In cells and extracts the contact can be indirect. Some results given as binding are weak or reduced against the parent protein; the word gives no strength. Tags and fused reporters may be left off the sequences shown.

Assay in all cases: FRET or BRET
On the technique in general: In BRET a luciferase serves as donor, and the signal depends on an acceptor being close.

For assay [1], the target named is T1, DGAT1-mCherry (mouse) (UniProt Q9Z2A7).
T1 sequence: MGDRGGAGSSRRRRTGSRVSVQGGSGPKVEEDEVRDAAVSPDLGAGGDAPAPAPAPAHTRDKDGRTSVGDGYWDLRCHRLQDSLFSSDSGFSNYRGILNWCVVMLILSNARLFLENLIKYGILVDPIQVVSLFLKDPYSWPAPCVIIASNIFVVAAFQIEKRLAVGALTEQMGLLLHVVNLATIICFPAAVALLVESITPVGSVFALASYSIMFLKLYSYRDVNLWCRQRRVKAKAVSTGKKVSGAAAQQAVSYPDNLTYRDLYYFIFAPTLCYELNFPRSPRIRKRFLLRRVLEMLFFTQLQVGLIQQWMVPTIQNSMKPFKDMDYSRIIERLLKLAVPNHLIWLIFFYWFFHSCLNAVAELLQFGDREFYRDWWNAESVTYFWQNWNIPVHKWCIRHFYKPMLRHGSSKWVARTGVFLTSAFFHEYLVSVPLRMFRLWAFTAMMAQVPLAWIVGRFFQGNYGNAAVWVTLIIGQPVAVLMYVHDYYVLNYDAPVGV

In assay [2] the target is T2, DGAT2-mCherry (mouse) (UniProt Q9DCV3).
T2 sequence: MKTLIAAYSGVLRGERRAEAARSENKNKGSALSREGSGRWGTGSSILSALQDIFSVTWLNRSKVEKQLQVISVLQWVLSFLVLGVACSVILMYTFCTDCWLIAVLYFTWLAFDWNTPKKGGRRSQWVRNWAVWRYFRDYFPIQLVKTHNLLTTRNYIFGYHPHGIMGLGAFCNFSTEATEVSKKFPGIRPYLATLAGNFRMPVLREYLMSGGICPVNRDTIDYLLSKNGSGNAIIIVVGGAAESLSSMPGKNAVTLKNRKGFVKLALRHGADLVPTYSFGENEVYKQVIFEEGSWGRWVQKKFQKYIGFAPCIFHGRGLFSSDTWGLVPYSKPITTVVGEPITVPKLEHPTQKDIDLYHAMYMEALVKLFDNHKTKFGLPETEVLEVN

Assay [3] concerns the target T1, DGAT1-mCherry (mouse). The source holds these as a separate data set.
Assay [4] concerns the target T2, DGAT2-mCherry (mouse). This is another data set of the same source.
The next assay has as its target T3, PLIN2-mCherry (mouse) (UniProt P43883).
T3 sequence: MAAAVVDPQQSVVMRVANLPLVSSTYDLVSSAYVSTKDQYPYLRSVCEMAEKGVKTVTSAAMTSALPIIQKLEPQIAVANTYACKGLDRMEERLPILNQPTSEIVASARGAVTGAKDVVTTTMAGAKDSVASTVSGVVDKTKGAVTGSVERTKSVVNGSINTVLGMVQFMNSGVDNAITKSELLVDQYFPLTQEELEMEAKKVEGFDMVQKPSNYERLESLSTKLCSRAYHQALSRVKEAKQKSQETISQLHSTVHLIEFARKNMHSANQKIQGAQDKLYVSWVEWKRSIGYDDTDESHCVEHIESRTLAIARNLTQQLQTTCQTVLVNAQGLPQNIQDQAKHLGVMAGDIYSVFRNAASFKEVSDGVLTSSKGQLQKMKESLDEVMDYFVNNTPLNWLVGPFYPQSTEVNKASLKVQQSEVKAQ

The target of a further assay is T4, PLIN3-mCherry (mouse) (UniProt Q9DBG5).
T4 sequence: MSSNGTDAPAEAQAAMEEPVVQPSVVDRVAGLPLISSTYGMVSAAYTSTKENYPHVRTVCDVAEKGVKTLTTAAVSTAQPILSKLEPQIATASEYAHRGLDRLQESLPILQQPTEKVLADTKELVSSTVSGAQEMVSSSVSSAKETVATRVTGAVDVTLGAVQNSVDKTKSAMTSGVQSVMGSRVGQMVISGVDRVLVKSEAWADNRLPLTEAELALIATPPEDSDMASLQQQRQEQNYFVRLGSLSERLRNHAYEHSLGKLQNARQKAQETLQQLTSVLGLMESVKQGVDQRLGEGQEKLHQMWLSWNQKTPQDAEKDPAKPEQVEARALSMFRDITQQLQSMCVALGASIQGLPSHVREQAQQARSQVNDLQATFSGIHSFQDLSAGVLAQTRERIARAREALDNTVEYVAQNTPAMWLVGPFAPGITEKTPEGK

In another assay the target is T5, GPAT1-EGFP (mouse) (UniProt Q61586).
T5 sequence: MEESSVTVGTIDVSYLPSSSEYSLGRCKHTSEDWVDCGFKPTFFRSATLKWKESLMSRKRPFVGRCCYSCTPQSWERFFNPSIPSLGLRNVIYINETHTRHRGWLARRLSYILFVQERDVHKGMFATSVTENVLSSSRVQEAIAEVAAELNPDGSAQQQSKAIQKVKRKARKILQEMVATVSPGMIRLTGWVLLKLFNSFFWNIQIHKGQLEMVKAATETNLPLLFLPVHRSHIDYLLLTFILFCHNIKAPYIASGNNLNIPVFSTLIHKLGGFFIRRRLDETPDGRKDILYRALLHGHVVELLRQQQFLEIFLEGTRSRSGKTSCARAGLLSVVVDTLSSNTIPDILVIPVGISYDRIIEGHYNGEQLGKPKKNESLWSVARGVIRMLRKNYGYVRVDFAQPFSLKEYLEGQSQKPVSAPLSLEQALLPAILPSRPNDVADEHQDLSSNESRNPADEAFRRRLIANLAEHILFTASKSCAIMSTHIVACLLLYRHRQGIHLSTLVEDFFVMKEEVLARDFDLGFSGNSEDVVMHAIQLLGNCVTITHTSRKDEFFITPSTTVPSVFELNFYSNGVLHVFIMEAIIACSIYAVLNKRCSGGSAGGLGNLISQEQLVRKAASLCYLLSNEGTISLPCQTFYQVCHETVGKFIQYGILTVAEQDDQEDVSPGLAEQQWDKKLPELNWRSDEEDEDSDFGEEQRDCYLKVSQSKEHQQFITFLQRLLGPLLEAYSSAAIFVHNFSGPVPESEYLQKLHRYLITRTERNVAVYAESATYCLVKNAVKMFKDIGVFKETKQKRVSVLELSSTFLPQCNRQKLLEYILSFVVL

A further assay deals with T6, GPAT4-EGFP (mouse) (UniProt Q8K2C8).
T6 sequence: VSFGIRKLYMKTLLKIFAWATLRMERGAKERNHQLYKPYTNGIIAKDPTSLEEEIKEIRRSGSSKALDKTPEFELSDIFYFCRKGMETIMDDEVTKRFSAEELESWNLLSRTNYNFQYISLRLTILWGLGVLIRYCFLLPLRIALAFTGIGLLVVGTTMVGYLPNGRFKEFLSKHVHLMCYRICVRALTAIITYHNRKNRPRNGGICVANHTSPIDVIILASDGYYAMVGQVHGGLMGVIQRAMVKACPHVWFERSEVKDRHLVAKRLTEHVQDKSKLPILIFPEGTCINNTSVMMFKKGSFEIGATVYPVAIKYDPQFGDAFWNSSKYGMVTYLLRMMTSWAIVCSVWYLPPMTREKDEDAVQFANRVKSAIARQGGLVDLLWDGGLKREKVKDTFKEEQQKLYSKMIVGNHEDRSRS

B1: HILPDA-mEGFP (protein, UniProt Q9JLS0 1-64)
chain: MKFMLNLYVLGIMLTLLSIFVRVMESLGGLLESPLPGSSWITRGQLANTQPPKGLPDHPSRGVQ
Regarding B1, the binding entry in the assay with DGAT1-mCherry (mouse) [1] is recorded as “binds”; with DGAT2-mCherry (mouse) [2] it was “binds”; with DGAT1-mCherry (mouse) [3] it was “binds”; in the assay with DGAT2-mCherry (mouse) [4], “binds”; in the assay with PLIN2-mCherry (mouse) it was “no binding”; in the assay with PLIN3-mCherry (mouse) it was “no binding”.

B2: HILPDA-mCherry (protein, UniProt Q9JLS0 1-64)
chain: MKFMLNLYVLGIMLTLLSIFVRVMESLGGLLESPLPGSSWITRGQLANTQPPKGLPDHPSRGVQ
With B2, the binding result with GPAT1-EGFP (mouse) and with GPAT4-EGFP (mouse) was “no binding” throughout.
